Experiment: in vitro
Conditions: human, Caco-2

Papp A→B at 2 h, 10 µM: 224 nm/s
Compound: CC(C)NCC(O)COc1cccc2ccccc12 (stereo unspecified) [PROPRANOLOL]

— ChEMBL document CHEMBL4308851, “Alkyl-guanidine Compounds as Potent Broad-Spectrum Antibacterial Agents: Chemical Library Extension and Biological Characterization” (J Med Chem, 2018)
